Compound in this experiment: Nc1nc2c(ncn2[C@@H]2O[C@H](COP(=O)(O)OP(=O)(O)OP(=O)(O)O)[C@@H](O)[C@H]2O)c(=O)[nH]1 [guanosine triphosphate]
Kind of experiment: NP40-soluble protein abundance relative to vehicle (solubility fold change) (ratio); higher = more soluble protein in presence of GTP. The procedure, abridged:
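Jurkat crude lysate (Dounce-homogenised) was treated with eight concentrations from 0.1 to 10 mM for 10 min at room temperature, then 3 min at 37 °C. It was solubilised with 0.8% NP40 and benzonase (60 min, 4 °C) and ultracentrifuged, and the supernatant was TMT-labelled for LC-MS/MS. Intensities were vsn-normalised, and the value is the fold change against the NP40-processed vehicle per replicate, from three independent experiments.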

Amino acid sequences for entries named in this document (tags omitted). A change or cut given only in a name is not applied to a line headed by its entry.
UniProt P40925: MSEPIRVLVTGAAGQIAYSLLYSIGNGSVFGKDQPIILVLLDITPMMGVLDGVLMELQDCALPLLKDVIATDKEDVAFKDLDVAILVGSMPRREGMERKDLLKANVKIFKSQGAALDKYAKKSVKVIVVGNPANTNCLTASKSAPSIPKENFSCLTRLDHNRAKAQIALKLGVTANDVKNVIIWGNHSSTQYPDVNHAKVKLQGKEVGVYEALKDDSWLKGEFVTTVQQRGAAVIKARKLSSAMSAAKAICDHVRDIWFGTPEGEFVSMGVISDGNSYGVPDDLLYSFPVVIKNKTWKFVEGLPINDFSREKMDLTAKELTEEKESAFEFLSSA
UniProt P40855: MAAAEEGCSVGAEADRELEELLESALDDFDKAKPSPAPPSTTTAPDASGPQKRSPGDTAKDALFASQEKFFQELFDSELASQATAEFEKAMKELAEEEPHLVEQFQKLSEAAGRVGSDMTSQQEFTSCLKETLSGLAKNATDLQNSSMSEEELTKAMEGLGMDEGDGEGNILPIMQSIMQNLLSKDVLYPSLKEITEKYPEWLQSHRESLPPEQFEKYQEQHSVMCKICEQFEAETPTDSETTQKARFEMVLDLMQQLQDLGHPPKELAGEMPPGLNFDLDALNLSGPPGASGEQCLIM
UniProt P39748, whole entry: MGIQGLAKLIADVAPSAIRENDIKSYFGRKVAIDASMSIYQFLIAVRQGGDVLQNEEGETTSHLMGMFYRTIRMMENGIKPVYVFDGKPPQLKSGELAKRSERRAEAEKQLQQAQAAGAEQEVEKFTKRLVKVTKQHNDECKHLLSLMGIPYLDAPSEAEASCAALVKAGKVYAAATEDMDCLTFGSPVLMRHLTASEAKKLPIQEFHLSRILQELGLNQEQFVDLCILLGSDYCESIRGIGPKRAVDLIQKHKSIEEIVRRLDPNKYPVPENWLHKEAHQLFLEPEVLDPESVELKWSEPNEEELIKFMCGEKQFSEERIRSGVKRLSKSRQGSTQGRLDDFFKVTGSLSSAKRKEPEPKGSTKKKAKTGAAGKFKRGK
UniProt P48449: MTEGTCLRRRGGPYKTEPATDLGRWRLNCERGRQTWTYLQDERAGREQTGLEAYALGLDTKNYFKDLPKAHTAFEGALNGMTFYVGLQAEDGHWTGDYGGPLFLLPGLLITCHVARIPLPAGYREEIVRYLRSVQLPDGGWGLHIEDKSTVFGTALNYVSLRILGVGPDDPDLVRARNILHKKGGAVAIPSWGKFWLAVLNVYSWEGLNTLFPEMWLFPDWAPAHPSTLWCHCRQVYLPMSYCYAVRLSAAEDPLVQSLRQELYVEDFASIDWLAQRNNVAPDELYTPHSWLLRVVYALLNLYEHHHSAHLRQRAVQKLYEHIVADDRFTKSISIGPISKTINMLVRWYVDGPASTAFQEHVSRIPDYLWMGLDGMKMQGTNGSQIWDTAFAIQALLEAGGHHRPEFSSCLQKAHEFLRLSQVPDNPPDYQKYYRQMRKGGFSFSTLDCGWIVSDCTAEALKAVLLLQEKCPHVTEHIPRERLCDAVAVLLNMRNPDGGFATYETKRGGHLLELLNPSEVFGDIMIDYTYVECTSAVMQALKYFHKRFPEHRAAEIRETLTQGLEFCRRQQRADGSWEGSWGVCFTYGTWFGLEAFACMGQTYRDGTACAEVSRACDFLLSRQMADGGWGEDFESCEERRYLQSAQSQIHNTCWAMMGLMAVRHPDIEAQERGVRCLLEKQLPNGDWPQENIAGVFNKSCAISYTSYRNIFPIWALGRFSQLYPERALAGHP
UniProt P48506: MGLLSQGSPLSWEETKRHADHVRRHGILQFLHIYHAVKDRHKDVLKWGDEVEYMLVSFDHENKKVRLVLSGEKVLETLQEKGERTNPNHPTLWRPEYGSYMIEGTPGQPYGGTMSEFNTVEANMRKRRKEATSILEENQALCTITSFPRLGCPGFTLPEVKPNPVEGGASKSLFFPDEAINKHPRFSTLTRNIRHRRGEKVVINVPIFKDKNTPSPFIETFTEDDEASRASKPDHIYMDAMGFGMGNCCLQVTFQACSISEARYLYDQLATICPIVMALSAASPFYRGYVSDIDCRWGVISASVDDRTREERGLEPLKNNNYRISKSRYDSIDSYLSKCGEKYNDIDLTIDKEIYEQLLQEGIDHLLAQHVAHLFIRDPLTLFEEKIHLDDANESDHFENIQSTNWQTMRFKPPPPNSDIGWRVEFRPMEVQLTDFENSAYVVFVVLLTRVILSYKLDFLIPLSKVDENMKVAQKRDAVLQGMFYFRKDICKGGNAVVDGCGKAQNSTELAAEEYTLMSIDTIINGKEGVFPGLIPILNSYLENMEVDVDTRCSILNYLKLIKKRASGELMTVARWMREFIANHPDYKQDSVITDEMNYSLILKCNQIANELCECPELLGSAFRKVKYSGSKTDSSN
UniProt P30038: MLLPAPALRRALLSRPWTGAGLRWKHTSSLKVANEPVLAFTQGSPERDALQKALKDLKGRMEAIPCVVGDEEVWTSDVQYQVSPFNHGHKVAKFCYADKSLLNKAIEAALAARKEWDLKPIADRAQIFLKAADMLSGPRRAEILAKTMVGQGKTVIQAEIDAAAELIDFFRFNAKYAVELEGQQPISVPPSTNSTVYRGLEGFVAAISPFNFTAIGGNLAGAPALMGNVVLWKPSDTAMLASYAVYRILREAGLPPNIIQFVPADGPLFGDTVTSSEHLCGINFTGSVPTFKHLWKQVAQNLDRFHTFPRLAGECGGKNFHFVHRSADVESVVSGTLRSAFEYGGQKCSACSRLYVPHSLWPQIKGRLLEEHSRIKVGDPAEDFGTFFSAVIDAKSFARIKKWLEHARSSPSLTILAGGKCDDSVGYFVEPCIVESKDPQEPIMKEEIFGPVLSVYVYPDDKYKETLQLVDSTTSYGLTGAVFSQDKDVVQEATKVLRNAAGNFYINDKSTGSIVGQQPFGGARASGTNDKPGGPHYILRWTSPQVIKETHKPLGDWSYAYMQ
UniProt P49902: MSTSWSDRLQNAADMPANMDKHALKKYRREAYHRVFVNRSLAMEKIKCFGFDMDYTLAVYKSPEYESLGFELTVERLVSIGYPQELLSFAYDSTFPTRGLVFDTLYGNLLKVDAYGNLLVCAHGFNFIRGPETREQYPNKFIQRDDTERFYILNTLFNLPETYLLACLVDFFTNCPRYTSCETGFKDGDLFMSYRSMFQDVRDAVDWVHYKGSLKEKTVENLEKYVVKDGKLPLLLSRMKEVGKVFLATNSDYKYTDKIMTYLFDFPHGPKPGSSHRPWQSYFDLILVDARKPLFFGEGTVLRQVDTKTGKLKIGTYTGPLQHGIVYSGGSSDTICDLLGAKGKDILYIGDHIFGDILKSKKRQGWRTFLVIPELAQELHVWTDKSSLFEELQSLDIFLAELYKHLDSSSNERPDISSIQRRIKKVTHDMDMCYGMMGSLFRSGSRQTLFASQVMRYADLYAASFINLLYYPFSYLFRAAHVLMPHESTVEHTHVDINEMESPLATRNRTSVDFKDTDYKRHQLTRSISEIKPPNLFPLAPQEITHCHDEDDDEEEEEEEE
UniProt P35658: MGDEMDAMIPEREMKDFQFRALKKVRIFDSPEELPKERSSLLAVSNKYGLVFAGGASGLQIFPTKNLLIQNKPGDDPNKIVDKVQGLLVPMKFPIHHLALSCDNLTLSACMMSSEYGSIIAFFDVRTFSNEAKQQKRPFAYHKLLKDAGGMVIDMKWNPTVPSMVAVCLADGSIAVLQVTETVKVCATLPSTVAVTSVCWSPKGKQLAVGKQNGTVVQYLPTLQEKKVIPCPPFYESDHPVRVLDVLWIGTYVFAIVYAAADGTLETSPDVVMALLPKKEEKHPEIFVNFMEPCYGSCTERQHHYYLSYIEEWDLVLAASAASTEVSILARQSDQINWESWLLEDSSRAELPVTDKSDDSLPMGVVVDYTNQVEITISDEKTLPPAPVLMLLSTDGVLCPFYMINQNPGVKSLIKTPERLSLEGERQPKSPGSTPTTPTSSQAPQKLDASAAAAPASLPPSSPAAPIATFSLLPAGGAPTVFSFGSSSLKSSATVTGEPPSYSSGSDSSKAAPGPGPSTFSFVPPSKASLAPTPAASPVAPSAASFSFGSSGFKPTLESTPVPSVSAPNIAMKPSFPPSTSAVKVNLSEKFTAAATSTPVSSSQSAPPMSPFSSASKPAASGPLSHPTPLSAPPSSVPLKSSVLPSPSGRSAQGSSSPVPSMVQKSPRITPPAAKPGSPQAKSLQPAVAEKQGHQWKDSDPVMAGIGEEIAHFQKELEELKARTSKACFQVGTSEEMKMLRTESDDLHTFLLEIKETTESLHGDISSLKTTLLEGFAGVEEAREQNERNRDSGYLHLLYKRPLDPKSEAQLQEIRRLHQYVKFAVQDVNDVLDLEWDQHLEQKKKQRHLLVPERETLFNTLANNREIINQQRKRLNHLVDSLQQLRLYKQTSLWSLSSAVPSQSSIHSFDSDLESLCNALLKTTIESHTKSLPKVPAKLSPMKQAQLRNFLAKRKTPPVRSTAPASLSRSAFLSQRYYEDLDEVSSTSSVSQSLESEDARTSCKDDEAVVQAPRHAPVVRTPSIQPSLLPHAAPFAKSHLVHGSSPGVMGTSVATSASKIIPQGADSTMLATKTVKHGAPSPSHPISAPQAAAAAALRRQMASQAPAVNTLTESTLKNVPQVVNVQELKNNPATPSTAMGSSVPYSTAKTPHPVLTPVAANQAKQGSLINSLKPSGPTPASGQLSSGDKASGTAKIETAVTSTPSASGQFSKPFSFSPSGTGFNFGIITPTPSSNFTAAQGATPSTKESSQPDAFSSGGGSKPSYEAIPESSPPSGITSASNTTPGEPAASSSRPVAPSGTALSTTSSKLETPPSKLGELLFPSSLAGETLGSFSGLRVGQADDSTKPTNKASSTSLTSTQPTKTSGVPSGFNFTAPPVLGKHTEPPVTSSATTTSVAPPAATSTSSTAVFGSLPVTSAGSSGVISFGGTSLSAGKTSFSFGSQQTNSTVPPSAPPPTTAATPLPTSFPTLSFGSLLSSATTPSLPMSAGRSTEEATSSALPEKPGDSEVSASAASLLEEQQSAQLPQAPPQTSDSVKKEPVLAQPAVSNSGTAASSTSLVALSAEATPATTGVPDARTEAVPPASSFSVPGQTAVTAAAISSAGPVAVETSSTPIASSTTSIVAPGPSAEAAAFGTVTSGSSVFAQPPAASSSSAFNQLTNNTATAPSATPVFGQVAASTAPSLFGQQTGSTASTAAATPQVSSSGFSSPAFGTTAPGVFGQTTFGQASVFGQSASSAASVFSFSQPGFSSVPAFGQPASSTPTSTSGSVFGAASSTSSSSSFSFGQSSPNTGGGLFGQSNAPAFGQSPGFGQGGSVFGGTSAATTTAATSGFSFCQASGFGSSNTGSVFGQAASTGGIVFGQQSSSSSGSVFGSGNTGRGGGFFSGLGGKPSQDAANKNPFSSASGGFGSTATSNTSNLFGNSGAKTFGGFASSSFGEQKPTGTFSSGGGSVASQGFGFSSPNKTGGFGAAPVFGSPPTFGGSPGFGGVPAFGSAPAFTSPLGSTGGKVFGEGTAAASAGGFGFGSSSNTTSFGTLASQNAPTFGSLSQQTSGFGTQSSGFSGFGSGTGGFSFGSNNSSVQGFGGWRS
UniProt P31751: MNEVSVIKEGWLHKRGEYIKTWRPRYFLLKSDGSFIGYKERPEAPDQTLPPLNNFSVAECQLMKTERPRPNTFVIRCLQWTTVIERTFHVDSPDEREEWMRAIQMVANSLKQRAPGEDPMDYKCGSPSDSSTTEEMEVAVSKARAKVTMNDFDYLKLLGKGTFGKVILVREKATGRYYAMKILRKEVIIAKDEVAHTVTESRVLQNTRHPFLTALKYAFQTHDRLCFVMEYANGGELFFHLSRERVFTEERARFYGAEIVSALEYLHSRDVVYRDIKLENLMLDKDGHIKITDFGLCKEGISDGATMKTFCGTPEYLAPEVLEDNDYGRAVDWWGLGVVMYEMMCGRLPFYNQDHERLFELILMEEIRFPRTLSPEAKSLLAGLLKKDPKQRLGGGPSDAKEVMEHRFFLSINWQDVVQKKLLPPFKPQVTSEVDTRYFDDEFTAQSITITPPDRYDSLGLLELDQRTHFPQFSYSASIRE
UniProt P48507: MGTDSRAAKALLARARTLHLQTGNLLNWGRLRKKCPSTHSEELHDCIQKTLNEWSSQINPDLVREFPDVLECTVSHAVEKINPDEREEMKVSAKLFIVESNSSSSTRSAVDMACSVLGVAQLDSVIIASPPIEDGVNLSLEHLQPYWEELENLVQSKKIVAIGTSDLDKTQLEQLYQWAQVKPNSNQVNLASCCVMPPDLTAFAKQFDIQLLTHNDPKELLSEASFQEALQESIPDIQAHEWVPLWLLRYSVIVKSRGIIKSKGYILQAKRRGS

± gives the standard deviation of the averaged measurements. The list shows a part of the results.

As to UniProt P40925 and related entries, the NP40-soluble protein abundance is 0.939 ± 0.042 (concentration: 0.1mM); 0.939 ± 0.035 (concentration: 0.5mM); 0.918 ± 0.044 (concentration: 1mM); 0.857 ± 0.046 (concentration: 2mM); 0.861 ± 0.057 (concentration: 4mM); 0.869 ± 0.041 (concentration: 6mM). Moreover, the NP40-soluble protein abundance reads like this: (concentration: 8mM) 0.863 ± 0.055; (concentration: 10mM) 0.818 ± 0.053.

For UniProt P40855 and related entries, the NP40-soluble protein abundance runs as follows: (concentration: 0.1mM) 0.979 ± 0.047; (concentration: 0.5mM) 0.929 ± 0.06; (concentration: 1mM) 1.05 ± 0.059; (concentration: 2mM) 1.03 ± 0.083; (concentration: 4mM) 1 ± 0.056; (concentration: 6mM) 1 ± 0.079. For the same target, the NP40-soluble protein abundance (concentration: 8mM) is 1.03 ± 0.073 and the NP40-soluble protein abundance (concentration: 10mM) was found to be 1.14 ± 0.021.

As for UniProt P39748 and related entries, the NP40-soluble protein abundance reads like this: (concentration: 0.1mM) 0.932 ± 0.069; (concentration: 0.5mM) 0.945 ± 0.085; (concentration: 1mM) 0.945 ± 0.072; (concentration: 2mM) 0.902 ± 0.12; (concentration: 4mM) 0.877 ± 0.11; (concentration: 6mM) 0.928 ± 0.11. Further, the NP40-soluble protein abundance (concentration: 8mM) was 0.914 ± 0.068 and the NP40-soluble protein abundance (concentration: 10mM) came out at 0.908 ± 0.095.

With UniProt P48449 and related entries, the NP40-soluble protein abundance by setting is: (concentration: 0.1mM) 1.04 ± 0.029; (concentration: 0.5mM) 1.05 ± 0.053; (concentration: 1mM) 0.912 ± 0.019; (concentration: 2mM) 0.922 ± 0.081; (concentration: 4mM) 0.923 ± 0.024; (concentration: 6mM) 0.892 ± 0.0077. Besides, the NP40-soluble protein abundance by setting is: (concentration: 8mM) 0.867 ± 0.04; (concentration: 10mM) 0.855 ± 0.068.

With GCLC (UniProt P48506), the NP40-soluble protein abundance reads like this: (concentration: 0.1mM) 1.01 ± 0.034; (concentration: 0.5mM) 1.06 ± 0.023; (concentration: 1mM) 0.967 ± 0.037; (concentration: 2mM) 0.948 ± 0.068; (concentration: 4mM) 0.912 ± 0.08; (concentration: 6mM) 0.951 ± 0.04. The NP40-soluble protein abundance amounted to 0.931 ± 0.037 (concentration: 8mM) and 0.894 ± 0.081 (concentration: 10mM).

As to ALDH4A1 (UniProt P30038), the NP40-soluble protein abundance was determined as 0.964 ± 0.078 (concentration: 0.1mM); 0.965 ± 0.07 (concentration: 0.5mM); 0.955 ± 0.057 (concentration: 1mM); 0.917 ± 0.083 (concentration: 2mM); 0.917 ± 0.079 (concentration: 4mM); 0.916 ± 0.085 (concentration: 6mM). The NP40-soluble protein abundance (concentration: 8mM) came out at 0.904 ± 0.066 and the NP40-soluble protein abundance (concentration: 10mM) was found to be 0.889 ± 0.069.

UniProt P49902 and related entries: the NP40-soluble protein abundance was 1.06 ± 0.13 (concentration: 0.1mM); 1.09 ± 0.16 (concentration: 0.5mM); 0.92 ± 0.054 (concentration: 1mM); 0.963 ± 0.22 (concentration: 2mM); 0.96 ± 0.14 (concentration: 4mM); 0.932 ± 0.13 (concentration: 6mM). Besides, the NP40-soluble protein abundance stood at 0.872 ± 0.099 (concentration: 8mM) and 0.853 ± 0.16 (concentration: 10mM).

Consider UniProt P35658 and related entries, for which the NP40-soluble protein abundance was found to be 0.992 ± 0.097 (concentration: 0.1mM); 0.984 ± 0.1 (concentration: 0.5mM); 1 ± 0.1 (concentration: 1mM); 1 ± 0.1 (concentration: 2mM); 1.01 ± 0.076 (concentration: 4mM); 1.03 ± 0.083 (concentration: 6mM). Further, the NP40-soluble protein abundance runs as follows: (concentration: 8mM) 1.09 ± 0.094; (concentration: 10mM) 1.13 ± 0.096.

Consider AKT2 (UniProt P31751), for which the NP40-soluble protein abundance turned out to be 1.07 ± 0.09 (concentration: 0.1mM); 1.02 ± 0.099 (concentration: 0.5mM); 0.913 ± 0.044 (concentration: 1mM); 0.919 ± 0.12 (concentration: 2mM); 0.945 ± 0.11 (concentration: 4mM); 0.865 ± 0.082 (concentration: 6mM). Also, the NP40-soluble protein abundance (concentration: 8mM) is 0.882 ± 0.038 and the NP40-soluble protein abundance (concentration: 10mM) worked out at 0.818 ± 0.091.

For the target GCLM (UniProt P48507), the NP40-soluble protein abundance reads like this: (concentration: 0.1mM) 0.924 ± 0.058; (concentration: 0.5mM) 0.909 ± 0.048; (concentration: 1mM) 0.887 ± 0.057; (concentration: 2mM) 0.876 ± 0.068; (concentration: 4mM) 0.877 ± 0.085; (concentration: 6mM) 0.871 ± 0.069. Moreover, the NP40-soluble protein abundance is 0.833 ± 0.096 (concentration: 8mM) and 0.831 ± 0.082 (concentration: 10mM).

The values are drawn from the supplement of paper PMC6411743.
